No constants are given. Whether binding was seen depends on the method and setting. Tags and fused reporters may be left off the sequences shown.
Molecular target: Peptidyl-prolyl cis/trans-isomerase Rrd1 from Saccharomyces cerevisiae (S. cerevisiae) (UniProt P40454)
Test: SEC; AKTA FPLC, Superdex 200 10/300 GL, 20 mM Tris pH 8.0, 150 mM NaCl, room temperature, flow 0.4 ml/min, detection at 280 nm; column calibrated with standard molecular weight markers; eluted at 15.4 ml, around 45 kDa; both purified

binding: no binding
B1: Peptidyl-prolyl cis/trans-isomerase Rrd1 from Saccharomyces cerevisiae (enzyme, UniProt P40454 1-393)
chain: MSLDRVDWPHATFSTPVKRIFDTQTTLDFQSSLAIHRIKYHLHKYTTLISHCSDPDPHATASSIAMVNGLMGVLDKLAHLIDETPPLPGPRRYGNLACREWHHKLDERLPQWLQEMLPSEYHEVVPELQYYLGNSFGSSTRLDYGTGHELSFMATVAALDMLGMFPHMRGADVFLLFNKYYTIMRRLILTYTLEPAGSHGVWGLDDHFHLVYILGSSQWQLLDAQAPLQPREILDKSLVREYKDTNFYCQGINFINEVKMGPFEEHSPILYDIAVTVPRWSKVCKGLLKMYSVEVLKKFPVVQHFWFGTGFFPWVNIQNGTDLPVFEEKEEESIEQANAGSPGREQTSTRFPTSTSMPPPGVPPSGNNINYLLSHQNQSHRNQTSFSRDRLRR

From publication PMC10263354
